We go through five targets from the supplement of paper PMC6411743.

Amino acid sequences for entries named in this document (tags omitted). A change or cut given only in a name is not applied to a line headed by its entry.
UniProt O95716: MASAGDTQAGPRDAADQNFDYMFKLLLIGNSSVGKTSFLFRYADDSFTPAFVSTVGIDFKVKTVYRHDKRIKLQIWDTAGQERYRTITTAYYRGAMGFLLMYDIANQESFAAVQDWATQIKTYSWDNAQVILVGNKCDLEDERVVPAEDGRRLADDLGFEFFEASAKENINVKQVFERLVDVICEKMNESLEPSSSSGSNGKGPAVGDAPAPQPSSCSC
UniProt O96011: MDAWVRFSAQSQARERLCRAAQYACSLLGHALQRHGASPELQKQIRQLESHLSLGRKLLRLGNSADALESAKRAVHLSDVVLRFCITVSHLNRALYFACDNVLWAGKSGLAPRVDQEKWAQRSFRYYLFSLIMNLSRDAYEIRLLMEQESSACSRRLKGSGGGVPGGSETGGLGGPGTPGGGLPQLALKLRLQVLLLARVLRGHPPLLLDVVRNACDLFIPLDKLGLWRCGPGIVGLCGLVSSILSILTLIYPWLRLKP
UniProt O95721: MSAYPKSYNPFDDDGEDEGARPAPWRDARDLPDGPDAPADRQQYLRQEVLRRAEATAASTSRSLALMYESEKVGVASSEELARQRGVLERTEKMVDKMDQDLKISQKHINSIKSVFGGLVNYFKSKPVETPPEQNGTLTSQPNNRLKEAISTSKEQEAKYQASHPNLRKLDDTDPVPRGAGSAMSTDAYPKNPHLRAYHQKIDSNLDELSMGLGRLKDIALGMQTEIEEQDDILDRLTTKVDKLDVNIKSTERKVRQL
UniProt P00387: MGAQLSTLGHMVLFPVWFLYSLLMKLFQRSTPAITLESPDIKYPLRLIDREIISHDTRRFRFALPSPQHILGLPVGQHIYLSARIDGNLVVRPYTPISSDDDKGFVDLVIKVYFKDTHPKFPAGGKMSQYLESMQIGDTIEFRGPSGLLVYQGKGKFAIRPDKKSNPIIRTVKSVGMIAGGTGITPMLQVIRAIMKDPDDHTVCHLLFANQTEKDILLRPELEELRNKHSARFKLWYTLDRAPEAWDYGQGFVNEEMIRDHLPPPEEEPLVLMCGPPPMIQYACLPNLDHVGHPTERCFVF
UniProt O75683: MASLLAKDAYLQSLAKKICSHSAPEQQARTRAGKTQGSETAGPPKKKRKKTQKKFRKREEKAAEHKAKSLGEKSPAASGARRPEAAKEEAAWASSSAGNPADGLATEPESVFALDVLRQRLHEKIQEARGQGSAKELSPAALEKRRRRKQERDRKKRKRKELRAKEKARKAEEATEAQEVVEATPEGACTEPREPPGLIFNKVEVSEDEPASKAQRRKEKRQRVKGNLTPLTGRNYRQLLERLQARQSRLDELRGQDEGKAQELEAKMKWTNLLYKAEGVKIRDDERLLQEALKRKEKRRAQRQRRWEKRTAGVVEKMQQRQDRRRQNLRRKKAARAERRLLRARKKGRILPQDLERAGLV

Compound in the experiment: Nc1nc2c(ncn2[C@@H]2O[C@H](COP(=O)(O)OP(=O)(O)OP(=O)(O)O)[C@@H](O)[C@H]2O)c(=O)[nH]1 [guanosine triphosphate]
The experiment in a line: NP40-soluble protein abundance relative to vehicle (solubility fold change) (ratio); higher = more soluble protein in presence of GTP. The procedure:
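Solubility proteome profiling in Jurkat crude lysate. Lysate was treated with Mg-GTP (0.1-10 mM) for 10 min at room temperature and 3 min at 37 °C, then solubilised with 0.8% NP40 and benzonase, followed by ultracentrifugation. Proteins were quantified by TMT10 LC-MS/MS; the value is the NP40-soluble abundance relative to the NP40-processed vehicle, from 3 independent experiments.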

± gives the standard deviation of the averaged measurements. Some of the results follow.

For the target RAB3D (UniProt O95716), the NP40-soluble protein abundance (concentration: 0.1mM) was determined as 1.1 ± 0.056; the NP40-soluble protein abundance (concentration: 0.5mM) amounted to 0.997 ± 0.084; the NP40-soluble protein abundance (concentration: 1mM) came to 0.9 ± 0.098; the NP40-soluble protein abundance (concentration: 2mM) was determined as 0.959 ± 0.13; the NP40-soluble protein abundance (concentration: 4mM) came out at 0.915 ± 0.09; the NP40-soluble protein abundance (concentration: 6mM) stood at 0.952 ± 0.052. In addition, the NP40-soluble protein abundance is, setting by setting: (concentration: 8mM) 0.854 ± 0.058; (concentration: 10mM) 0.852 ± 0.12.

On to UniProt O96011 and related entries, for which the NP40-soluble protein abundance reads like this: (concentration: 0.1mM) 1.01 ± 0.048; (concentration: 0.5mM) 0.968 ± 0.035; (concentration: 1mM) 0.9282 ± 0.0073; (concentration: 2mM) 0.927 ± 0.065; (concentration: 4mM) 0.978 ± 0.027; (concentration: 6mM) 0.945 ± 0.013. In addition, the NP40-soluble protein abundance came out at 0.942 ± 0.07 (concentration: 8mM) and 0.914 ± 0.055 (concentration: 10mM).

As to SNAP29 (UniProt O95721), the NP40-soluble protein abundance runs as follows: (concentration: 0.1mM) 1 ± 0.042; (concentration: 0.5mM) 0.962 ± 0.07; (concentration: 1mM) 1.02 ± 0.012; (concentration: 2mM) 0.959 ± 0.059; (concentration: 4mM) 0.933 ± 0.078; (concentration: 6mM) 0.979 ± 0.12. Also, the NP40-soluble protein abundance (concentration: 8mM) is 1.08 ± 0.063 and the NP40-soluble protein abundance (concentration: 10mM) came out at 1.07 ± 0.078.

As to UniProt P00387 and related entries, the NP40-soluble protein abundance came to 1.11 ± 0.13 (concentration: 0.1mM); 1.1 ± 0.14 (concentration: 0.5mM); 0.945 ± 0.11 (concentration: 1mM); 0.947 ± 0.15 (concentration: 2mM); 0.938 ± 0.14 (concentration: 4mM); 0.925 ± 0.14 (concentration: 6mM). The NP40-soluble protein abundance (concentration: 8mM) stood at 0.882 ± 0.1 and the NP40-soluble protein abundance (concentration: 10mM) came out at 0.853 ± 0.14.

Take SURF6 (UniProt O75683): the NP40-soluble protein abundance (concentration: 0.1mM) amounted to 1.05 ± 0.021; the NP40-soluble protein abundance (concentration: 0.5mM) worked out at 1 ± 0.013; the NP40-soluble protein abundance (concentration: 1mM) came out at 1.05 ± 0.026; the NP40-soluble protein abundance (concentration: 2mM) was 1.029 ± 0.0064; the NP40-soluble protein abundance (concentration: 4mM) came out at 1.14 ± 0.022; the NP40-soluble protein abundance (concentration: 6mM) came to 1.08 ± 0.025. Further, the NP40-soluble protein abundance (concentration: 8mM) was determined as 1.06 ± 0.067 and the NP40-soluble protein abundance (concentration: 10mM) was determined as 1.11 ± 0.028.
